# From the supplement of paper PMC3334620
# In all, about 33,000 sequences were measured (“E-score (-0.5 to 0.5)”: median about -0.0014, highest 2% from about 0.25 on). The list shows a part of the results.
# Biological target: T1, Cad1 (UniProt P24813)
# T1 sequence: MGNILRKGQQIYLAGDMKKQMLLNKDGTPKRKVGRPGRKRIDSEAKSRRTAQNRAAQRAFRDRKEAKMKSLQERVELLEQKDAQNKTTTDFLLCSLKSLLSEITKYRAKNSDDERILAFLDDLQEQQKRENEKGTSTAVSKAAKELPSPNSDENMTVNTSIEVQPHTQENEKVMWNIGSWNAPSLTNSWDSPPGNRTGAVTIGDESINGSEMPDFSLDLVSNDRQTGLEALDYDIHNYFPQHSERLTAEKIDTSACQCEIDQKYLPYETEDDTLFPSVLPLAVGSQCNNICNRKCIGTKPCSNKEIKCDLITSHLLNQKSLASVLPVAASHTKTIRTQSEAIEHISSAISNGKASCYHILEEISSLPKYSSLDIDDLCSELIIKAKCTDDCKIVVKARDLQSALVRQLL
# Assay: PBM E-score (8-mer binding enrichment) (E-score (-0.5 to 0.5)); higher = stronger / more preferred TF binding
# Conditions: protein concentration: 100 nM; construct: GST-full length
# Outline: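 Each ungapped eight-base word and its reverse complement, pooled, received an E-score from the Universal PBM Analysis Suite. Underlying scans, normalised with masliner, recorded fluorescent anti-GST bound to GST-tagged yeast transcription factors. These were applied at about 100-200 nM to universal all-10-mer Agilent arrays double-stranded by primer extension.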
row,Sequence,PBM E-score
1,AGCTGTCG,-0.0586
2,CCAATGAG,-0.0921
3,ACAAGTTC,0.0636
4,TATACAAA,0.149
5,GTCGACAA,0.0867
6,AGGCAAAA,0.0512
7,ATCACAGA,0.116
8,AATTACGC,0.095
9,CTGACGGC,-0.137
10,GGAACTAA,0.0336
11,AGCCAGAT,-0.239
12,GTCAGCAC,0.261
13,CTTGATAA,0.227
14,ACTCTGTC,-0.0235
15,GCCACGAA,-0.0932
16,ATACTTTC,0.0272
17,AAAACAGA,-0.011
18,CGCTCGCA,0.121
19,CTTCCTAA,0.0434
20,CCGCACTA,0.122
21,CGTGGGAG,-0.109
22,CCGAACCC,-0.254
23,ACCCCCAT,-0.236
24,ATATGTCC,0.112
25,CCCCAAAC,-0.26

row,Sequence,PBM E-score
1,ACTCGAAG,-0.126
2,CCCTCTCA,-0.293
3,CCCGAGTA,0.11
4,TAATCCAA,0.255
5,CGCTACTA,0.276
6,GCCAAGTA,-0.13
7,ATAGAGAT,0.139
8,GAGTGCCA,-0.28
9,GCAGCCGA,0.067
10,GACAATGA,-0.0996
11,ATCATATC,0.163
12,ACATTGCG,0.0247
13,AACACCCA,-0.105
14,GCGCTGTA,0.107
15,GCACGAAA,0.197
16,ATTCGTGA,0.104
17,AACAACCG,0.0924
18,AAATATAT,0.305
19,ATCAACGA,0.13
20,CAGGACAC,0.0927
21,TATAATCA,0.31
22,TGCTGACA,0.334
23,CAAGAATC,0.0508
24,CGCAAAAA,0.185
25,AGTCCACA,-0.141

row,Sequence,PBM E-score
1,AGCGCCTC,-0.0985
2,CACTTCCA,-0.0966
3,ACAGTATG,0.0341
4,CGGGTTCA,0.052
5,CATATAAC,-0.0307
6,ACCCCACT,-0.0801
7,AACATTAT,0.141
8,CAGATGTA,-0.0786
9,AAGCACAG,0.0641
10,AAATGTAT,0.0386
11,CAAGCCGA,0.168
12,GGTCTTCA,-0.156
13,CCCTTCGC,-0.101
14,ACTCCGGG,0.073
15,TCTAGCCA,-0.0602
16,AAAGCAAC,0.0556
17,AACAGTCG,-0.00121
18,GGGGATAA,-0.0212
19,ACGGCGGA,0.00266
20,CCGGGCCC,-0.0165
21,AGTACCAA,0.0522
22,AGCACGTC,0.0443
23,CAAAGGGA,-0.0627
24,TGCGTTAA,-0.0188
25,CCATAGAA,-0.114

row,Sequence,PBM E-score
1,CAAATTCC,0.142
2,CACGGTTA,0.0415
3,GTATCACA,0.159
4,TTACAGAA,0.0115
5,AACATCAC,-0.0011
6,GGAATCGA,0.00927
7,ATACACAC,0.077
8,AGTCGTGG,-0.126
9,GAACAAAC,0.0779
10,CGGATGTA,-0.0954
11,AGGAGGCA,-0.195
12,AGGCTTCC,0.0378
13,CCCGTGAA,0.064
14,GAATCGCC,-0.149
15,TTGGTAAA,0.073
16,GTAGAAAA,-0.0723
17,TGATCTAA,0.0715
18,GGTCTGAA,0.123
19,AGCCGATA,-0.15
20,GCTGTGGA,0.0345
21,ACAGACGG,-0.122
22,AAATGGCC,-0.0974
23,ACTTACGG,0.0069
24,ATGAGGCC,-0.0755
25,CTTGACTC,-0.0762

# Another view of some results above:
row | Sequence | PBM E-score
2 | CACGGTTA | 0.0415
3 | GTATCACA | 0.159
4 | TTACAGAA | 0.0115
5 | AACATCAC | -0.0011
6 | GGAATCGA | 0.00927
7 | ATACACAC | 0.077

# Going on with the list.

row,Sequence,PBM E-score
1,CAGACGAG,-0.0718
2,CGCTTAAC,0.15
3,CCGTCGTC,-0.165
4,ATTCGCGC,0.17
5,GGGCCACA,-0.17
6,CCGTATCG,-0.122
7,CCGCGCAG,0.105
8,AAGGTCCA,-0.122
9,GTGTTGAA,0.0548
10,GACCGATC,-0.128
11,ATTGAATG,0.144
12,CAAGTACG,-0.268
13,ATCCTGCA,0.151
14,AGTCCTCA,-0.0221
15,CGCAGACG,0.257
16,AGAAGCCC,0.0204
17,CATAGGTC,0.0654
18,GGGCCCCA,-0.271
19,CAATCGTC,0.114
20,CTTACATA,0.278
21,ACGAAGGG,-0.146
22,TACTTTCA,0.0645
23,CCGTCACA,-0.105
24,ACCTTAGG,-0.127
25,GGCGTTAC,-0.0303

# As entered above:
# ATTGAATG | PBM E-score: 0.144
# CAGACGAG | PBM E-score: -0.0718
# ATCCTGCA | PBM E-score: 0.151
# AGAAGCCC | PBM E-score: 0.0204

# Continuation:

row,Sequence,PBM E-score
1,ACGTAGGC,-0.169
2,AGATACCG,0.0348
3,CTTGGCTC,-0.149
4,AGCGGAGG,-0.243
5,AAAGCTCT,-0.28
6,AACCTATC,-0.102
7,GAATCACA,0.0724
8,CCCCCTTA,-0.366
9,AGCTTGAC,-0.247
10,CCCTACTC,-0.0421
11,AATCTACA,0.0319
12,AGTGACAC,0.161
13,CGAGACGC,0.0549
14,AATACATT,-0.0548
15,AGGAGCAT,-0.178
16,AGTTAACC,-0.0205
17,AAACGCTT,-0.0971
18,TCTTAACA,0.0995
19,CACTTGAA,-0.118
20,CGCATAGA,0.0454
21,CAGTCAAA,-0.108
22,ACAGGCAC,-0.204
23,TATGGCGA,-0.121
24,CCCGATGA,0.166
25,ATAGAGAA,0.075

row,Sequence,PBM E-score
1,AGATAAGA,0.193
2,AGCGCAGC,-0.166
3,CTTACAGA,0.0522
4,CAATGCAG,0.017
5,CGTGACTA,0.015
6,CTAATCGA,0.315
7,AATACCGA,0.0631
8,ACTCTGAA,0.0242
9,ACAATGTC,0.11
10,AAAAGTGG,0.139
11,CCCTGCGG,-0.272
12,AACACTCT,0.0621
13,ATTACTCA,0.325
14,ACTATGCC,0.0219
15,CCAAATGC,-0.0453
16,AGTACTAT,-0.0502
17,CGCTATAA,0.0164
18,TCGGGTCA,0.134
19,AGCCAGTG,-0.142
20,ATCCGCCG,0.193
21,AGTTGTTA,0.16
22,AAGCGTGT,-0.0443
23,GACCAAGC,0.0511
24,AATAACAC,0.0256
25,ACATCAAC,0.118

# 4 entries picked at random from those above, as already listed:
row,Sequence,PBM E-score
10,AAAAGTGG,0.139
15,CCAAATGC,-0.0453
12,AACACTCT,0.0621
13,ATTACTCA,0.325

# (continued)

row,Sequence,PBM E-score
1,AAACCCAG,0.0892
2,CCACCAAG,-0.179
3,ATAGCCAG,0.00967
4,GAAAAGGA,-0.123
5,GGACAAAC,0.00662
6,AACATCCA,0.00173
7,ATCAATGC,0.0236
8,TCCTGCCA,-0.0184
9,GAGCTAAA,-0.167
10,ATTTGTGA,0.163
11,AAATTGAT,0.153
12,CCTGATCG,-0.0975
13,ACGGGTCA,-0.228
14,ATGGAAAA,0.0253
15,ACCTCCAA,-0.0902
16,ACAACTGC,0.106
17,AAATACAT,0.0844
18,ATGATCTG,0.146
19,AGGGACCT,-0.155
20,CCGGGAGC,-0.188
21,CAACATCC,-0.179
22,CGACAAGC,-0.247
23,CGCTGTGC,-0.117
24,CAAACCAC,0.00562
25,ACATCAAT,0.0848

row,Sequence,PBM E-score
1,GAAGTTAA,-0.0192
2,CCAAAGTA,-0.154
3,AGGCTGAG,-0.0706
4,ATTGCAAT,0.182
5,ATCGACAA,0.105
6,AGGATGGA,-0.166
7,AGTACCCC,-0.211
8,ATATTAGG,0.248
9,GGATAACA,0.0152
10,ACGTTCAA,0.0746
11,AGCATGTC,-0.127
12,GCCTATCC,-0.085
13,CCCTAGAG,-0.122
14,ATCAAAGA,0.0834
15,GATTCGGC,0.113
16,TAACGACA,0.0499
17,GTAGCTCA,-0.0109
18,AATCGAAC,0.0215
19,AGCCTGCG,-0.155
